This is one part of the list. Repeats are few or missing, and single values can be far off.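 Cells were imaged in 1,536-well plates, and nuclei stained with an antibody against cleaved PARP were counted against all DNA-stained nuclei to give the apoptosis fraction. Screening doses were chosen to leave most cells alive, and resting and induced cleaved-PARP levels differ strongly between cell lines.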
The compounds below were run on IST-MEL1 (assay: cleaved PARP positive nuclei fraction relative to DMSO control; melanoma cells; higher = more apoptosis). Conditions: library dose: low library concentration; 72 h.

| SMILES | cleaved PARP positive nuclei fraction [%] |
| --- | --- |
| CN(c1ncccc1CNc1nc(Nc2ccc3c(c2)CC(=O)N3)ncc1C(F)(F)F)S(C)(=O)=O + Cn1c(=O)n(-c2ccc(C(C)(C)C#N)cc2)c2c3cc(-c4cnc5ccccc5c4)ccc3ncc21 [NVP-BEZ235] (first compound 0.08 µM, partner dose 0.004 µM) | 129 |
| NC(=O)c1ccc(N(C(N)=O)c2c(F)cccc2F)nc1-c1ccc(F)cc1F + CC(=O)c1c(C)c2cnc(Nc3ccc(N4CCNCC4)cn3)nc2n(C2CCCC2)c1=O [palbociclib] (first compound 0.4 µM, partner dose 0.04 µM) | 70.5 |
| CN(c1ncccc1CNc1nc(Nc2ccc3c(c2)CC(=O)N3)ncc1C(F)(F)F)S(C)(=O)=O + CCCS(=O)(=O)Nc1ccc(F)c(C(=O)c2c[nH]c3ncc(Cl)cc23)c1F [PLX4720] (first compound 0.08 µM, partner dose 0.08 µM) | 148 |
| CCCCCCCCc1ccc(CCC(N)(CO)CO)cc1 [fingolimod] + Nc1nc(F)nc2c1ncn2[C@@H]1O[C@H](CO)[C@@H](O)[C@@H]1O [fludarabine] (first compound 2 µM, partner dose 0.2 µM) | 280 |
| CCCCCCCCc1ccc(CCC(N)(CO)CO)cc1 [fingolimod] + CC(=O)c1c(C)c2cnc(Nc3ccc(N4CCNCC4)cn3)nc2n(C2CCCC2)c1=O [palbociclib] (first compound 2 µM, partner dose 0.04 µM) | 210 |
| CC(=O)O[C@@]12CO[C@@H]1C[C@H](O)[C@@]1(C)C(=O)[C@H](O)C3=C(C)[C@@H](OC(=O)[C@H](O)[C@@H](NC(=O)OC(C)(C)C)c4ccccc4)C[C@@](O)([C@@H](OC(=O)c4ccccc4)[C@H]21)C3(C)C [Docetaxel] + Cc1cc(Nc2cc(N3CCN(C)CC3)nc(/C=C/c3ccccc3)n2)n[nH]1 [ENMD2076] (first compound 0.0001 µM, partner dose 0.04 µM) | 112 |
| CC1(C)CCC(c2ccc(Cl)cc2)=C(CN2CCN(c3ccc(C(=O)NS(=O)(=O)c4ccc(N[C@H](CCN5CCOCC5)CSc5ccccc5)c(S(=O)(=O)C(F)(F)F)c4)cc3)CC2)C1 + CCCS(=O)(=O)Nc1ccc(F)c(C(=O)c2c[nH]c3ncc(Cl)cc23)c1F [PLX4720] (first compound 0.4 µM, partner dose 0.08 µM) | 104 |
| CC(=O)O[C@@]12CO[C@@H]1C[C@H](O)[C@@]1(C)C(=O)[C@H](O)C3=C(C)[C@@H](OC(=O)[C@H](O)[C@@H](NC(=O)OC(C)(C)C)c4ccccc4)C[C@@](O)([C@@H](OC(=O)c4ccccc4)[C@H]21)C3(C)C [Docetaxel] + Cn1c(Nc2ccc(C(F)(F)F)cc2)nc2cc(Oc3ccnc(-c4ncc(C(F)(F)F)[nH]4)c3)ccc21 [CHIR265] (first compound 0.0001 µM, partner dose 0.08 µM) | 57.8 |
| Cn1sc(=O)n(Cc2ccccc2)c1=O + CC(C)C[C@H](NC(=O)[C@H](Cc1ccccc1)NC(=O)c1cnccn1)B(O)O [Bortezomib] (first compound 0.4 µM, partner dose 0.001 µM) | 121 |
| COc1ccc(C2=N[C@@H](c3ccc(Cl)cc3)[C@@H](c3ccc(Cl)cc3)N2C(=O)N2CCNC(=O)C2)c(OC(C)C)c1 [Nutlin-3] + C=CCNC1=C2C[C@@H](C)C[C@H](OC)[C@H](O)[C@@H](C)/C=C(\C)[C@H](OC(N)=O)[C@@H](OC)/C=C\C=C(/C)C(=O)NC(=CC1=O)C2=O [Tanespimycin] (first compound 0.1 µM, partner dose 0.002 µM) | 119 |
| C[C@@H](N)c1ccc(C(=O)Nc2ccnc3[nH]ccc23)cc1 + CC(C)C[C@H](NC(=O)[C@H](Cc1ccccc1)NC(=O)c1cnccn1)B(O)O [Bortezomib] (first compound 0.4 µM, partner dose 0.001 µM) | 137 |
| C[C@]1(O)C[C@@H](c2nc(-c3ccc4ccc(-c5ccccc5)nc4c3)c3c(N)nccn32)C1 + CS(=O)(=O)CCNCc1ccc(-c2ccc3ncnc(Nc4ccc(OCc5cccc(F)c5)c(Cl)c4)c3c2)o1 [lapatinib] (first compound 0.4 µM, partner dose 0.8 µM) | 118 |

In another format: entries from further up.
SMILES	cleaved PARP positive nuclei fraction [%]
CN(c1ncccc1CNc1nc(Nc2ccc3c(c2)CC(=O)N3)ncc1C(F)(F)F)S(C)(=O)=O + Cn1c(=O)n(-c2ccc(C(C)(C)C#N)cc2)c2c3cc(-c4cnc5ccccc5c4)ccc3ncc21 [NVP-BEZ235] (first compound 0.08 µM, partner dose 0.004 µM)	129
NC(=O)c1ccc(N(C(N)=O)c2c(F)cccc2F)nc1-c1ccc(F)cc1F + CC(=O)c1c(C)c2cnc(Nc3ccc(N4CCNCC4)cn3)nc2n(C2CCCC2)c1=O [palbociclib] (first compound 0.4 µM, partner dose 0.04 µM)	70.5

Source: the supplement of paper PMC4604168 (melanoma cell lines)
